In paper PMC10610379, “Epidrugs as Promising Tools to Eliminate Plasmodium falciparum Artemisinin-Resistant and Quiescent Parasites” (Pharmaceutics, 2023):

Legend:
[1] = system: Plasmodium falciparum F32-ART (artemisinin-resistant strain); experiment: Standard chemosensitivity assay (SYBR Green I), F32-ART; type: cell-based; details: 48 h incubation, mean ± SEM of 3 experiments (* mean of 2), read-out: Antiplasmodial Activity: IC50, F32-ART
Experimental: (§1) They differ by eight mutations in seven genes (PF3D7_0110400, PF3D7_1343700, PF3D7_0213400, PF3D7_1115700, PF3D7_1302100, PF3D7_1459600, PF3D7_1464500) among them the M476I mutation on the kelch13 gene. F32-ART and F32-TEM strains have RSA^0–3 h values up to 12% and less than 0.1%, respectively. […] Both strains were cultured, in the same conditions, according to the Trager and Jensen protocol with modifications. Briefly, parasites were cultivated in RPMI-1640 medium (Biowest) at 2% hematocrit in human red blood cells and 5% human serum (EFS, French Blood Bank) under 5% CO2 in a humid atmosphere at 37 °C.
(§2) The antimalarial activities of the compounds were evaluated on both strains. […] Antimalarial activities were determined with the SYBR Green I method. Each drug concentration was tested in triplicate. The parasites were incubated with the drugs for 48 h. Plates were read on a BioTek FLX800 Microplate Fluorescence Reader (Bio-Tek instruments, Winooski, VT, USA) (λexcitation = 485 nm, λemission = 528 nm). Control parasite culture (i.e., RPMI with 0.5% DMSO) was referred to as 100% growth. IC50 and IC90 values were determined using GraphPad Prism version 7.05 (GraphPad Software, San Diego, CA, USA). […] When it is relevant, statistical significance between results obtained with both parasite strains was determined by a Mann–Whitney test using GraphPad Prism version 7.05.

[2] = system: Plasmodium falciparum F32-TEM (artemisinin-sensitive twin line); experiment: Standard chemosensitivity assay (SYBR Green I), F32-TEM; type: cell-based; details: 48 h incubation, mean ± SEM of 3 experiments (* mean of 2), read-out: Antiplasmodial Activity: IC50, F32-TEM
Experimental: as §1, with “F32-ART, an artemisinin-resistant strain, and F32-TEM, its artemisinin-sensitive twin line, were obtained as previously reported. They” for “They”, “°C. […]” for “°C.”
as §2, with “Each drug concentration was tested in triplicate. The parasites were incubated with the drugs for 48 h.” left out, “Control parasite culture (i.e., RPMI with 0.5% DMSO) was referred to as 100% growth.” left out

Work on `O=C(CCCCCCC(=O)Nc1ccccc1)NO` [SAHA] yielded an IC50 [1] of 0.54 ± 0.055 µM and an IC50 [2] of 0.39 ± 0.01 µM.
